Our source for the survivor count and T/C values is PubChem BioAssay AID264 (DTP/NCI, 2004).

This assay concerns nude mice, LX-1 lung xenograft intrarenal, tumor weight T/C. Briefly: NCI In Vivo Anticancer Drug Screen. Data for tumor model Human Lung LX-1 Xenograft (intrarenal inoculation) in NU/NU Swiss (nude) mice. Conditions: T/C endpoint: mean tumor weight change, higher T/C = larger tumour; for T/C: evaluated on day 11. Put shortly:
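In vivo, transplantable tumor; compound vs vehicle arms; tumor size measured; value = T/C.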
(Xenograft models place foreign cells or tissue in a host animal.)

The mark [1] stands for this setting: dose: 2400.0 mg/kg/injection, schedule: Q04DX003 (sc), vehicle: Klucel (hydroxypropylcellulose) (HPC).
Setting [2] is: dose: 50.0 mg/kg/injection, schedule: Q01DX010 (sc), vehicle: saline with Tween-80.
[3] abbreviates: dose: 100.0 mg/kg/injection, schedule: Q01DX010 (sc), vehicle: saline with Tween-80.
Where [4] appears, read: dose: 200.0 mg/kg/injection, schedule: Q01DX010 (sc), vehicle: saline with Tween-80.
Setting [5] is: dose: 400.0 mg/kg/injection, schedule: Q01DX010 (sc), vehicle: saline with Tween-80.
Setting [6] is: dose: 300.0 mg/kg/injection, schedule: Q04DX003 (sc), vehicle: saline with Tween-80.
Where [7] appears, read: dose: 600.0 mg/kg/injection, schedule: Q04DX003 (sc), vehicle: saline with Tween-80.
Where [8] appears, read: dose: 1200.0 mg/kg/injection, schedule: Q04DX003 (sc), vehicle: saline with Tween-80.
Setting [9] is: dose: 2400.0 mg/kg/injection, schedule: Q04DX003 (sc), vehicle: saline with Tween-80.

The list does not hold the whole screen: it is rich in T/C values a quarter to a half above the control, in often repeated tests (any T/C) and in doses without a T/C. Further doses and runs are listed elsewhere. T/C: endpoint of the treated group in % of that of the vehicle group. Schedule codes are those of the source, read here as Q, the interval in days (D) or hours (H), X, the number of doses. Some T/C values carry the count of animals alive at the toxicity check (mostly the fifth day); where none is given, no animal had died by that day. Some entries hold several experiments; the values are given in rising order. Some doses have a count of surviving animals in place of a T/C: the source holds a T/C of zero for them, seemingly a mark for toxic or unscored doses. Survivors were counted at the toxicity check, usually on the fifth day, unless a day is given; later deaths do not show.

`O=c1s[se]c2ccccc12`: the survivor count reads like this: (dose: 300.0 mg/kg/injection, schedule: Q04DX003 (sc), vehicle: Klucel (hydroxypropylcellulose) (HPC)) 3 of 6 on day 11; (dose: 600.0 mg/kg/injection, schedule: Q04DX003 (sc), vehicle: Klucel (hydroxypropylcellulose) (HPC)) 0 of 6 on day 11.
Consider `OC(CBr)C(O)C(O)C(O)CBr` (configuration not stated), for which the survivor count reads like this: (dose: 120.0 mg/kg/injection, schedule: Q01DX010 (sc), vehicle: Klucel (hydroxypropylcellulose) (HPC)) 1 of 2 on day 11; (dose: 1600.0 mg/kg/injection, schedule: Q01DX010 (sc), vehicle: Klucel (hydroxypropylcellulose) (HPC)) 0 of 3 on day 11.
For the compound `O=C1N[C@@H]2C(=C[C@H](O)[C@@H](O)[C@H]2O)c2cc3c(c(O)c21)OCO3`, the survivor count was 0 of 6 on day 11 (dose: 10.0 mg/kg/injection, schedule: Q04DX003 (sc), vehicle: saline with Tween-80) and 0 of 6 on day 11 (dose: 20.0 mg/kg/injection, schedule: Q04DX003 (sc), vehicle: saline with Tween-80).
In the case of `O=C1C=CC(n2cc(F)c(=O)[nH]c2=O)O1` (configuration not stated), the survivor count (dose: 200.0 mg/kg/injection, schedule: Q04DX003 (sc), vehicle: Klucel (hydroxypropylcellulose) (HPC)) was 0 of 6 on day 11.
Regarding `O=NN(CCCl)C(=O)Oc1ccc(OC(=O)N(CCCl)N=O)cc1`, under setting [1], the T/C was 145 % of control.
As for `CC1(CO)C(O)CCC2(C)C1CCC1CC3CC12CCC3(O)CO` (configuration not stated), the T/C by setting is: under setting [2], 46, 54, 62 [2 of 3 alive on day 11], 89, 111 % of control; under setting [3], 13 [2 of 2 alive on day 11], 16, 33, 54, 63 % of control; under setting [4], 2 [2 of 3 alive on day 11], 5 [2 of 3 alive on day 11], 48, 90 % of control [5 of 6 alive on day 11]; under setting [5], 29 and 80 % of control. Moreover, the survivor count runs as follows: under setting [3], 1 of 3 on day 11; under setting [4], 0 of 3 on day 11; under setting [5], 0 of 3 on day 11.
As to `O=S(=O)(O)O`, the T/C (dose: 75.0 mg/kg/injection, schedule: Q04DX003 (sc), vehicle: Klucel (hydroxypropylcellulose) (HPC)) is 129 % of control.
`CN(N=O)C(=O)N[C@@H](C=O)[C@@H](O)[C@H](O)[C@H](O)CO`: the survivor count reads like this: (dose: 300.0 mg/kg/injection, schedule: Q04DX003 (sc), vehicle: other) 1 of 6 on day 11; (dose: 600.0 mg/kg/injection, schedule: Q04DX003 (sc), vehicle: other) 0 of 6 on day 11; (dose: 600.0 mg/kg/injection, schedule: Q04DX003 (sc), vehicle: saline) 0 of 6 on day 11.
As for `O=C(O)CSc1nc(-c2ccccc2)c(-c2ccccc2)n1-c1ccccn1`, the survivor count is on record as 1 of 3 on day 11 (dose: 200.0 mg/kg/injection, schedule: Q01DX010 (sc), vehicle: water) and 0 of 3 on day 11 (dose: 400.0 mg/kg/injection, schedule: Q01DX010 (sc), vehicle: water).
On to `CS(=O)(=O)OCCCCOS(C)(=O)=O`, for which the survivor count is listed as 0 of 3 on day 11 under setting [2], 0 of 3 on day 11 under setting [3] and 0 of 3 on day 11 under setting [4].
For `C[n+]1c2cc(N)ccc2cc2ccc(N)cc21`, the survivor count is recorded as 0 of 3 on day 11 (dose: 12.5 mg/kg/injection, schedule: Q01DX010 (sc), vehicle: saline); 0 of 3 on day 11 (dose: 25.0 mg/kg/injection, schedule: Q01DX010 (sc), vehicle: saline); 0 of 3 on day 11 (dose: 50.0 mg/kg/injection, schedule: Q01DX010 (sc), vehicle: saline).
Take `CSC1SCC2C(=O)N(C)C(C(C)C)C(=O)OCC(NC(=O)c3cnc4ccccc4n3)C(=O)NC(C)C(=O)N(C)C1C(=O)N(C)C(C(C)C)C(=O)OCC(NC(=O)c1cnc3ccccc3n1)C(=O)NC(C)C(=O)N2C` (configuration not stated): the survivor count (dose: 480.0 micrograms/kg/injection, schedule: Q01DX010 (sc), vehicle: saline) was 0 of 3 on day 11.
As for `Ic1ncnc2c1ncn2C1CCCO1` (configuration not stated), the T/C (dose: 400.0 mg/kg/injection, schedule: Q04DX003 (sc), vehicle: Klucel (hydroxypropylcellulose) (HPC)) was 135 % of control.
For the compound `Cc1ccc(S(=O)(=O)N/N=C/C(Br)=C(/Br)C(=O)O)cc1`, the survivor count (dose: 1200.0 mg/kg/injection, schedule: Q04DX003 (sc), vehicle: Klucel (hydroxypropylcellulose) (HPC)) is listed as 0 of 6 on day 11.
For `CCN(CC)CCC(=O)c1ccccc1`, the T/C under setting [6] was 133 % of control [5 of 6 alive on day 11]. For the same compound, the survivor count under setting [7] is given as 2 of 6 on day 11 and the survivor count under setting [8] is given as 0 of 6 on day 11.
Turning to `C[C@H](CCC[C@H](C)OS(=O)(=O)c1ccccc1)OS(=O)(=O)c1ccccc1`, the survivor count is recorded as 1 of 6 on day 11 under setting [7] and 3 of 6 on day 11 under setting [8].
Regarding `CCC1=C[C@H]2CN(CCc3c([nH]c4ccccc34)[C@@](C(=O)OC)(c3cc4c(cc3OC)N(C)[C@H]3[C@@](O)(C(=O)NC)[C@H](OC(C)=O)[C@]5(CC)C=CCN6CC[C@]43[C@@H]65)C2)C1`, the survivor count is given as 3 of 6 on day 11 (dose: 1.0 mg/kg/injection, schedule: Q04DX003 (sc), vehicle: water) and 3 of 6 on day 11 (dose: 8.0 mg/kg/injection, schedule: Q04DX003 (sc), vehicle: water).
Consider `CCCCCC1c2cc(O)ccc2OC1N1CCOCC1` (configuration not stated), for which, under setting [6], the T/C was 128 % of control.
Take `C(C#CCN1CCOCC1)#CCN1CCOCC1`: the survivor count under setting [1] is on record as 2 of 6 on day 11.
As for `O=C(O)CCCc1ccc(N(CCCl)CCCl)cc1`, the survivor count reads like this: (dose: 16.0 mg/kg/injection, schedule: Q01DX010 (sc), vehicle: saline with Tween-80) 1 of 3 on day 11; (dose: 32.0 mg/kg/injection, schedule: Q01DX010 (sc), vehicle: saline with Tween-80) 0 of 3 on day 11.
Regarding `C=C1C(C)C2C(Cc3ccccc3)NC(=O)C23C(OC(C)=O)C=CC(C)(O)C(=O)C(C)C/C=C/C3C1O` (configuration not stated), the survivor count reads like this: (dose: 30.0 mg/kg/injection, schedule: Q04DX003 (sc), vehicle: Klucel (hydroxypropylcellulose) (HPC)) 3 of 6 on day 11; (dose: 60.0 mg/kg/injection, schedule: Q04DX003 (sc), vehicle: Klucel (hydroxypropylcellulose) (HPC)) 3 of 6 on day 11.
Take `Nc1ccc(Cl)cc1N`: the survivor count by setting is: (dose: 1800.0 mg/kg/injection, schedule: Q04DX003 (sc), vehicle: saline with Tween-80) 0 of 6 on day 11; (dose: 3600.0 mg/kg/injection, schedule: Q04DX003 (sc), vehicle: saline with Tween-80) 0 of 6 on day 11.
As for `C[n+]1cccc(NC(=O)c2ccc(NC(=O)C34CCC(C(=O)Nc5ccc(C(=O)Nc6ccc[n+](C)c6)cc5)(CC3)CC4)cc2)c1`, under “dose: 100.0 mg/kg/injection, schedule: Q04DX003 (sc), vehicle: saline with Tween-80”, the survivor count is listed as 3 of 6 on day 11.
On to `COC1OC(CO)C(O)C(NC(=O)N(C)N=O)C1O` (configuration not stated), for which, under “dose: 1800.0 mg/kg/injection, schedule: Q04DX003 (sc), vehicle: saline”, the survivor count is 0 of 6 on day 11 and 3 of 6 on day 11.
With `CN(C)C1C(=O)C(C(=O)NP(=O)(NCCCO)N(CCCl)CCCl)=C(O)C2(O)C(=O)C3=C(O)c4c(O)cccc4C(C)(O)C3CC12` (configuration not stated), the survivor count is 1 of 6 on day 11 under setting [7], 0 of 6 on day 11 under setting [8] and 0 of 6 on day 11 under setting [9].
`NC(=S)N/N=C/c1ccc(OC(=O)COc2ccc(Cl)cc2)cn1`: the survivor count under setting [9] was 2 of 6 on day 11.
Regarding `NCCc1ccc(O)c(O)c1`, the survivor count (dose: 1600.0 mg/kg/injection, schedule: Q01DX010 (sc), vehicle: saline) is on record as 0 of 3 on day 11.
